PubChem BioAssay AID1508597 – Cure First – 2020
Shown is a random part of the about 2,100 reagents, in one setting of the screen. 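Calls flag viability under 80% in either arm, not effects specific to rucaparib; the reference for percent is not stated.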 A number with no mark means an inactive call. Some reagents were tested in more than one well and are listed for each. Reagent sequences are not shown. Not stated in the record: the 100% reference.

Assay: 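Survival screen with siRNA in ovarian cancer cells derived from patients, with or without rucaparib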 (primary screen)
Cell system: human ovarian carcinoma lines grown from tumours: OCI-P5x (papillary serous) and OCI-C5x (clear cell)
Reagent: siRNA pool against human genes, 1.25 pmol siRNA per well
Timing: 72 h or 96 h, depending on the cell culture
Conditions: rucaparib 20 µM (about IC30) or vehicle, present until read-out
Rucaparib or vehicle: Rucaparib
Cell line: OCI-P5x (serous)
Read-out: 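ATP luminescence measured at 72 or 96 h according to the culture, then normalised and expressed as percent viability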
Direction: viability, normalised: higher = more viable cells remaining
Call rule: 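Active when normalised viability falls below 80 percent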
Meaning of the calls: active = viability under 80%; inactive = viability 80% or more

The first 7 records, to show the layout:
gene	technical replicate	viability, normalised (%)
GUCY2C	1	77.1 (active)
GUCY2C	2	65.4 (active)
GUCY2C	3	70.4 (active)
PIWIL4	1	61 (active)
PIWIL4	2	43.5 (active)
PIWIL4	3	61.2 (active)
BRPF3	1	80.2

Main list, from the first entry:
gene	technical replicate	viability, normalised (%)
GUCY2C	1	77.1 (active)
GUCY2C	2	65.4 (active)
GUCY2C	3	70.4 (active)
PIWIL4	1	61 (active)
PIWIL4	2	43.5 (active)
PIWIL4	3	61.2 (active)
BRPF3	1	80.2
BRPF3	2	75.3 (active)
BRPF3	3	103
ZFYVE9	1	64.6 (active)
ZFYVE9	2	40.3 (active)
ZFYVE9	3	49.9 (active)
CLDN11	1	58.5 (active)
CLDN11	2	58.8 (active)
CLDN11	3	48.9 (active)
KIF4A	1	98.3
KIF4A	2	106
KIF4A	3	91.5
APPL2	1	87.3
APPL2	2	94.4
APPL2	3	79.7 (active)
ITIH4	1	83.3
ITIH4	2	80.2
ITIH4	3	77.5 (active)
CARMIL1	1	58.1 (active)
CARMIL1	2	59.6 (active)
CARMIL1	3	66.2 (active)
H4C8	1	56 (active)
H4C8	2	81.7
H4C8	3	67.5 (active)
MARK1	1	68.5 (active)
MARK1	2	68.4 (active)
MARK1	3	61.9 (active)
KSR2	1	101
KSR2	2	102
KSR2	3	70.8 (active)
DDX24	1	67.2 (active)
DDX24	2	85.2
DDX24	3	88.5
MBD6	1	67.7 (active)
MBD6	2	70.1 (active)
MBD6	3	67.8 (active)
PDK1	1	65.5 (active)
PDK1	1	71.4 (active)
PDK1	2	75.4 (active)
PDK1	2	78.3 (active)
PDK1	3	92.9
PDK1	3	68.7 (active)
PTPN9	1	43.4 (active)
PTPN9	2	48.1 (active)
PTPN9	3	97.6
DGKZ	1	114
DGKZ	2	129
DGKZ	3	91.6
NAALADL1	1	83.2
NAALADL1	2	78.8 (active)
NAALADL1	3	74.1 (active)
